# Experimental data: the supplement of paper PMC8728848
# The other results are listed elsewhere or left out.
# B1: PX14343F-bfa-562-20-562 (Bacteroides fragilis) (protein)
# chain: CDDFLDSFPQDTVTNENFWKSKEDADKVLVDIYASLLPKDAIFFDEAMSDNAYLVWDWWGGAQQVANGSYTTSGEIPTNRWNGSYEVIRKCWFLLEGIEKIEDISEQDKNKIIGETYFMLAYNYYVLTSYFGDVPLVTKTLAIPESKQLVRTPKAEVVDYAINKLKEAAVMLEGLSQEKGRVTADACRFLIARMYLYNGDYSNVLETVKLLEGKYQLYREGDTPYEDLFSGVAENSCEVILSVVCDKRVGEIYTSHGGNGIMLLKGITGEDPYRGVTPSGSLVDAYPMADGRLIHEAGSSYDPKKPYEGRDPRFYQSIVYPTGQIKYLDVETGTVKERLYDPEDPTTVPEHQYNYSQPSATGYMWNKYIDYSVYAMNSVWDCTNDIIVFRYADVLLMKAEALLQTKGESAKEEVCNLIDQLRDRCSCGRVHRENYNSKDELMELLKNERRIELANEGLRYMDLIRWKDAEKNTIVTGVGLTGQMYGAYMRKDGVGKDDKTVDVDNTPRRYIETRYFNASKGYLFPIPQKERDLNPNLTQNPNW
# Experiments:
# Assay in all cases: glycan array binding signal (z-score within array); higher = stronger binding
# Conditions in all cases: glycan notation: IUPAC condensed, linker removed
# Fuc(a1-2)Gal = molecular target: Fuc(a1-2)Gal
# How it was run: (§1)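 Glycan array binding is given as a within-array Z-score, which can be read as non-binding when negative. The arrays, 3228 of them, came from the Consortium for Functional Glycomics database and were retained only where the protein sequence was available. Z-scores were averaged across arrays of the same protein sequence at different concentrations or buffers and across linkers.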
# Fuc(a1-2)Gal(b1-3)GalNAc = molecular target: Fuc(a1-2)Gal(b1-3)GalNAc
# How it was run: as §1
# [1] = molecular target: Fuc(a1-2)Gal(b1-3)GalNAc(a1-3)[Fuc(a1-2)]Gal(b1-4)Glc
# How it was run: as §1
# [2] = molecular target: Fuc(a1-2)Gal(b1-3)GalNAc(a1-3)[Fuc(a1-2)]Gal(b1-4)GlcNAc
# How it was run: as §1
# [3] = molecular target: Fuc(a1-2)Gal(b1-3)GalNAc(b1-3)Gal
# How it was run: as §1
# [4] = molecular target: Fuc(a1-2)Gal(b1-3)GalNAc(b1-3)Gal(a1-4)Gal(b1-4)Glc
# How it was run: as §1
# [5] = molecular target: Fuc(a1-2)Gal(b1-3)GalNAc(b1-4)[Neu5Ac(a2-3)]Gal(b1-4)Glc
# How it was run: as §1
# Fuc(a1-2)Gal(b1-3)GlcNAc = molecular target: Fuc(a1-2)Gal(b1-3)GlcNAc
# How it was run: as §1
# [6] = molecular target: Fuc(a1-2)Gal(b1-3)GlcNAc(b1-2)Man(a1-3)[Fuc(a1-2)Gal(b1-3)GlcNAc(b1-2)Man(a1-6)]Man(b1-4)GlcNAc(b1-4)GlcNAc
# How it was run: as §1
# [7] = molecular target: Fuc(a1-2)Gal(b1-3)GlcNAc(b1-2)Man(a1-3)[Fuc(a1-2)Gal(b1-3)GlcNAc(b1-2)Man(a1-6)]Man(b1-4)GlcNAc(b1-4)[Fuc(a1-6)]GlcNAc
# How it was run: as §1
# [8] = molecular target: Fuc(a1-2)Gal(b1-3)GlcNAc(b1-3)Gal(b1-4)Glc
# How it was run: as §1
# [9] = molecular target: Fuc(a1-2)Gal(b1-3)GlcNAc(b1-3)GalNAc
# How it was run: as §1
# [10] = molecular target: Fuc(a1-2)Gal(b1-3)GlcNAc(b1-3)[Fuc(a1-2)Gal(b1-3)GlcNAc(b1-6)]GalNAc
# How it was run: as §1
# [11] = molecular target: Fuc(a1-2)Gal(b1-3)GlcNAc(b1-3)[Gal(b1-4)GlcNAc(b1-6)]Gal(b1-4)Glc
# How it was run: as §1
# [12] = molecular target: Fuc(a1-2)Gal(b1-3)GlcNAc(b1-3)[Neu5Ac(a2-6)Gal(b1-4)GlcNAc(b1-6)]Gal(b1-4)Glc
# How it was run: as §1
# [13] = molecular target: Fuc(a1-2)Gal(b1-3)GlcNAc6S
# How it was run: as §1
# [14] = molecular target: Fuc(a1-2)Gal(b1-3)[Fuc(a1-4)]GlcNAc
# How it was run: as §1
# [15] = molecular target: Fuc(a1-2)Gal(b1-3)[Fuc(a1-4)]GlcNAc(b1-2)Man(a1-3)[Fuc(a1-2)Gal(b1-3)[Fuc(a1-4)]GlcNAc(b1-2)Man(a1-3)]Man(b1-4)GlcNAc(b1-4)GlcNAc
# How it was run: as §1
# [16] = molecular target: Fuc(a1-2)Gal(b1-3)[Fuc(a1-4)]GlcNAc(b1-2)Man(a1-3)[Fuc(a1-2)Gal(b1-3)[Fuc(a1-4)]GlcNAc(b1-2)Man(a1-6)]Man(b1-4)GlcNAc(b1-4)[Fuc(a1-6)]GlcNAc(b1-4)[Fuc(a1-6)]GlcNAc
# How it was run: as §1
# [17] = molecular target: Fuc(a1-2)Gal(b1-3)[Fuc(a1-4)]GlcNAc(b1-3)[Fuc(a1-3)[Gal(b1-4)]GlcNAc(b1-6)]Gal(b1-4)Glc
# How it was run: as §1
# [18] = molecular target: Fuc(a1-2)Gal(b1-3)[Fuc(a1-4)]GlcNAc(b1-3)[Gal(b1-4)GlcNAc(b1-6)]Gal(b1-4)Glc
# How it was run: as §1
# Fuc(a1-2)Gal(b1-4)Glc = molecular target: Fuc(a1-2)Gal(b1-4)Glc
# How it was run: as §1
# Fuc(a1-2)Gal(b1-4)Glc6S = molecular target: Fuc(a1-2)Gal(b1-4)Glc6S
# How it was run: as §1
# Fuc(a1-2)Gal(b1-4)GlcNAc = molecular target: Fuc(a1-2)Gal(b1-4)GlcNAc
# How it was run: as §1
# [19] = molecular target: Fuc(a1-2)Gal(b1-4)GlcNAc(b1-2)Man
# How it was run: as §1
# [20] = molecular target: Fuc(a1-2)Gal(b1-4)GlcNAc(b1-2)Man(a1-3)[Fuc(a1-2)Gal(b1-4)GlcNAc(b1-2)Man(a1-6)]Man(b1-4)GlcNAc(b1-4)GlcNAc
# How it was run: as §1
# [21] = molecular target: Fuc(a1-2)Gal(b1-4)GlcNAc(b1-2)Man(a1-3)[Fuc(a1-2)Gal(b1-4)GlcNAc(b1-2)Man(a1-6)]Man(b1-4)GlcNAc(b1-4)[Fuc(a1-6)]GlcNAc
# How it was run: as §1
# [22] = molecular target: Fuc(a1-2)Gal(b1-4)GlcNAc(b1-2)[Fuc(a1-2)Gal(b1-4)GlcNAc(b1-4)]Man(a1-3)[Fuc(a1-2)Gal(b1-4)GlcNAc(b1-2)Man(a1-6)]Man(b1-4)GlcNAc(b1-4)GlcNAc
# How it was run: as §1
# [23] = molecular target: Fuc(a1-2)Gal(b1-4)GlcNAc(b1-3)Gal(b1-4)GlcNAc
# How it was run: as §1
# [24] = molecular target: Fuc(a1-2)Gal(b1-4)GlcNAc(b1-3)Gal(b1-4)GlcNAc(b1-2)Man(a1-3)[Fuc(a1-2)Gal(b1-4)GlcNAc(b1-3)Gal(b1-4)GlcNAc(b1-2)Man(a1-6)]Man(b1-4)GlcNAc(b1-4)GlcNAc
# How it was run: as §1
# [25] = molecular target: Fuc(a1-2)Gal(b1-4)GlcNAc(b1-3)Gal(b1-4)GlcNAc(b1-3)Gal(b1-4)GlcNAc
# How it was run: as §1
# [26] = molecular target: Fuc(a1-2)Gal(b1-4)GlcNAc(b1-3)GalNAc
# How it was run: as §1
# [27] = molecular target: Fuc(a1-2)Gal(b1-4)GlcNAc(b1-3)[Fuc(a1-2)Gal(b1-4)GlcNAc(b1-6)]GalNAc
# How it was run: as §1
# [28] = molecular target: Fuc(a1-2)Gal(b1-4)GlcNAc(b1-3)[Fuc(a1-3)[Gal(b1-4)]GlcNAc(b1-6)]Gal(b1-4)Glc
# How it was run: as §1
# [29] = molecular target: Fuc(a1-2)Gal(b1-4)GlcNAc(b1-6)GalNAc
# How it was run: as §1
# [30] = molecular target: Fuc(a1-2)Gal(b1-4)GlcNAc6S
# How it was run: as §1
# [31] = molecular target: Fuc(a1-2)Gal(b1-4)[Fuc(a1-3)]GlcNAc
# How it was run: as §1
# [32] = molecular target: Fuc(a1-2)Gal(b1-4)[Fuc(a1-3)]GlcNAc(b1-2)Man(a1-3)[Fuc(a1-2)Gal(b1-4)[Fuc(a1-3)]GlcNAc(b1-2)Man(a1-6)]Man(b1-4)GlcNAc(b1-4)[Fuc(a1-6)]GlcNAc
# How it was run: as §1
# [33] = molecular target: Fuc(a1-2)Gal(b1-4)[Fuc(a1-3)]GlcNAc(b1-2)[Fuc(a1-2)Gal(b1-4)[Fuc(a1-3)]GlcNAc(b1-4)]Man(a1-3)[Fuc(a1-2)Gal(b1-4)[Fuc(a1-3)]GlcNAc(b1-2)Man(a1-6)]Man(b1-4)GlcNAc(b1-4)GlcNAc
# How it was run: as §1
# [34] = molecular target: Fuc(a1-2)Gal(b1-4)[Fuc(a1-3)]GlcNAc(b1-3)Gal(b1-4)[Fuc(a1-3)]GlcNAc
# How it was run: as §1
# [35] = molecular target: Fuc(a1-2)Gal(b1-4)[Fuc(a1-3)]GlcNAc(b1-3)Gal(b1-4)[Fuc(a1-3)]GlcNAc(b1-3)Gal(b1-4)[Fuc(a1-3)]GlcNAc
# How it was run: as §1
# [36] = molecular target: Fuc(a1-2)Gal(b1-4)[Fuc(a1-3)]GlcNAc(b1-3)GalNAc
# How it was run: as §1
# [37] = molecular target: Fuc(a1-2)Gal(b1-4)[Fuc(a1-3)]GlcNAc(b1-3)[Neu5Ac(a2-6)Gal(b1-4)GlcNAc(b1-6)]Gal(b1-4)Glc
# How it was run: as §1
# [38] = molecular target: Fuc(a1-2)Gal3S(b1-4)GlcNAc
# How it was run: as §1
# [39] = molecular target: Fuc(a1-2)Gal6S(b1-3)GlcNAc
# How it was run: as §1
binder,measurement,setting,value
B1,glycan array binding signal (z-score),Fuc(a1-2)Gal,-0.039
same,glycan array binding signal (z-score),Fuc(a1-2)Gal(b1-3)GalNAc,-0.297
same,glycan array binding signal (z-score),[1],0.234
same,glycan array binding signal (z-score),[2],-0.228
same,glycan array binding signal (z-score),[3],-0.261
same,glycan array binding signal (z-score),[4],-0.467
same,glycan array binding signal (z-score),[5],0.115
same,glycan array binding signal (z-score),Fuc(a1-2)Gal(b1-3)GlcNAc,0.17
same,glycan array binding signal (z-score),[6],0.45
same,glycan array binding signal (z-score),[7],0.412
same,glycan array binding signal (z-score),[8],-0.008
same,glycan array binding signal (z-score),[9],0.411
same,glycan array binding signal (z-score),[10],-0.121
same,glycan array binding signal (z-score),[11],0.343
same,glycan array binding signal (z-score),[12],-0.007
same,glycan array binding signal (z-score),[13],-0.524
same,glycan array binding signal (z-score),[14],-0.089
same,glycan array binding signal (z-score),[15],-0.293
same,glycan array binding signal (z-score),[16],-0.286
same,glycan array binding signal (z-score),[17],-0.624
same,glycan array binding signal (z-score),[18],0.849
same,glycan array binding signal (z-score),Fuc(a1-2)Gal(b1-4)Glc,-0.391
same,glycan array binding signal (z-score),Fuc(a1-2)Gal(b1-4)Glc6S,0.255
same,glycan array binding signal (z-score),Fuc(a1-2)Gal(b1-4)GlcNAc,-0.367
same,glycan array binding signal (z-score),[19],-0.214
same,glycan array binding signal (z-score),[20],0.867
same,glycan array binding signal (z-score),[21],0.3
same,glycan array binding signal (z-score),[22],-0.23
same,glycan array binding signal (z-score),[23],-0.56
same,glycan array binding signal (z-score),[24],1.2
same,glycan array binding signal (z-score),[25],-0.301
same,glycan array binding signal (z-score),[26],-1.07
same,glycan array binding signal (z-score),[27],0.316
same,glycan array binding signal (z-score),[28],-0.504
same,glycan array binding signal (z-score),[29],0.141
same,glycan array binding signal (z-score),[30],-0.073
same,glycan array binding signal (z-score),[31],0.085
same,glycan array binding signal (z-score),[32],-0.43
same,glycan array binding signal (z-score),[33],-0.3
same,glycan array binding signal (z-score),[34],-0.862
same,glycan array binding signal (z-score),[35],0.172
same,glycan array binding signal (z-score),[36],-0.396
same,glycan array binding signal (z-score),[37],-0.542
same,glycan array binding signal (z-score),[38],-1.05
same,glycan array binding signal (z-score),[39],-0.004

# Some of the entries above, reformatted:
binder	measurement	setting	value
B1	glycan array binding signal (z-score)	[14]	-0.089
same	glycan array binding signal (z-score)	[15]	-0.293
same	glycan array binding signal (z-score)	[16]	-0.286
